Several values for one entry are separate records, joined by “and”; a condition that tells them apart may be missing. Equal values may be shown once.
Experiments:
mouse tracheal rings = assay: Wire myograph bronchodilation of carbachol pre-contracted mouse tracheal rings
Procedure: The trachea from C57 BL/6 mice was dissected and collected in PBS with Mg^2+ and Ca^2+. After further trimming, two 2 mm sections (rings) per trachea were then placed in DMEM media containing PSG/HEPES/AA/NaPyr for 1 h and used immediately or maintained overnight at 37°C in a humidified incubator with 5% CO2. Rings were then mounted into chambers of DMT wire myograph containing L-shaped mounting pins with 2–3 mN of force applied to secure rings on the pins and the rings were allowed to equilibrate for 25–30 min in a physiological saline buffer (PSS, 130 mM NaCl, 4.7 mM KCl, 1.2 mM MgS04, 14.9 mM NaHCO3, 1.2 mM KH2PO4, 0.026 mM EDTA, 1.6 mM CaCl2, 5.5 mM Dextrose). Throughout the experiment, rings were maintained at physiological temperature and gas conditions by heating buffer reservoir and chamber to 37°C and bubbling a 95% O2, 5% CO2 gas mixture into chamber.
After equilibration, a standard tissue “Wake-Up” procedure was applied by altering tension and then treatment with elevated potassium as follows: 3 mN tension was applied for 5–10 min, then another 2–3 mN tension to total of 5.5 mN and then to 7–8 mN for another 5 min; the tissue pre-tension was then set to 5 mN and allowed to equilibrate for 5–10 min followed by the removal of the PSS buffer and addition of KPSS (60 mM KCl, 74.7 mM NaCl in PSS solution), with force changes monitored until they reached a plateau. […]

human bronchial rings = assay: Wire myograph bronchodilation of histamine pre-contracted human bronchial rings (Biopta); settings: average
From the text: Details of bronchodilator studies shown in Figure 5H, 6 and Supplementary Figure 40 are provided below as part of the end assay report on Study CUR011 by Lee Christie (Biopta). Donors with any of the following conditions were excluded from the study: asthma, COPD, emphysema, lung cancer, cystic fibrosis, pulmonary fibrosis, pulmonary hypertension, pneumonia. Donors were also excluded if they had smoked in the past 12 months. Non-transplantable lung tissue was acquired from organ donors post mortem. Any macroscopically diseased/necrotic tissue was rejected. […] Human airway rings were set up under isometric conditions on a wire myograph in order to examine the influence of the test articles on bronchodilation. In order to assess tissue viability, the airways were challenged with carbachol (10 μM) and then isoprenaline (10 μM) to assess their constriction and relaxation responses, respectively. […] Viable airways were pre-constricted with histamine (10 μM), then exposed to one of the following cumulative concentration response curves (CCRCs): positive control, vehicle (water, volume matched to positive control), test article, vehicle (DMSO concentration matched to test articles). At the end of each CCRC, theophylline (2.2 mM) was added to induce maximal relaxation of the tissue. […]

SMILES | Hill Slope, individual experiments (mouse tracheal rings; EC75 carbachol, Exp 1-3) | Hill Slope, relaxation of mouse tracheal rings (mouse tracheal rings; pre-contracted with EC75 carbachol, average) | Hill Slope, relaxation of histamine pre-contracted human bronchial rings (human bronchial rings)
CC(C)NCC(O)c1ccc(O)c(O)c1 (stereo not drawn) [Isoproterenol, isoproterenol] | 0.8 and 0.9 (2×) | 0.9 | –
COc1cc([N+](=O)[O-])ccc1NC(=O)c1cc(Cl)c2ccccc2c1O [Cpd 4] | – | – | 4.0

Reference: article PMC6382696, “Drug Repurposing: The Anthelmintics Niclosamide and Nitazoxanide Are Potent TMEM16A Antagonists That Fully Bronchodilate Airways” (Frontiers in Pharmacology, 2019)
